Consider one molecule from publication PMC10879504.

The chains behind the UniProt entries cited, without tags or fusion partners.
UniProt Q86TM6: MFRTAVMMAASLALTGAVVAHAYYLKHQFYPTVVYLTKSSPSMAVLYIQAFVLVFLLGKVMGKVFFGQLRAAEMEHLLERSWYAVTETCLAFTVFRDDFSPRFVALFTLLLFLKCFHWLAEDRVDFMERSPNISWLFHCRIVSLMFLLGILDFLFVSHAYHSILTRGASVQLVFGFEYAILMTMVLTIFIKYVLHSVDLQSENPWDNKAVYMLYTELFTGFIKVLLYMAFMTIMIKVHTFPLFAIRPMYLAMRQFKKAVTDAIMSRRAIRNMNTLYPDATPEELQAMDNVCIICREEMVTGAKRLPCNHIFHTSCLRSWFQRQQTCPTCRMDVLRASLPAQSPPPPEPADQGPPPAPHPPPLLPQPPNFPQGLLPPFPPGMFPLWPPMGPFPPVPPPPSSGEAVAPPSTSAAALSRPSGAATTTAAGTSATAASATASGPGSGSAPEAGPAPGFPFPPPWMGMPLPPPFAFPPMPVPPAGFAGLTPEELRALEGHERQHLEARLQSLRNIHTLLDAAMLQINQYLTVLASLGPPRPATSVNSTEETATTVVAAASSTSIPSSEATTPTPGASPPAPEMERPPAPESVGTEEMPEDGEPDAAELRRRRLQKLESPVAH

These are yes or no findings as the source states them, for the method shown. Binding seen in cells or lysates may run through a third protein. These calls come from enrichment with a bait or labelling near it, and not all partners need be listed.

The assay has as its target HMG-CoA reductase degradation protein 1 (HRD1), endogenous (human (endogenous in Caco-2)) (UniProt Q86TM6). Description: affinity purification with mass spectrometry; IP with anti-HRD1 antibody on Protein A/G magnetic beads from Caco-2 cells; SDS-PAGE with Coomassie staining, LC-MS/MS (Q Exactive HF-X, MaxQuant).

B1: transmembrane protein 2 (TMEM2), endogenous (protein, UniProt Q9UHN6 1-1383)
chain: MYATDSRGHSPAFLQPQNGNSRHPSGYVPGKVVPLRPPPPPKSQASAKFTSIRREDRATFAFSPEEQQAQRESQKQKRHKNTFICFAITSFSFFIALAIILGISSKYAPDENCPDQNPRLRNWDPGQDSAKQVVIKEGDMLRLTSDATVHSIVIQDGGLLVFGDNKDGSRNITLRTHYILIQDGGALHIGAEKCRYKSKATITLYGKSDEGESMPTFGKKFIGVEAGGTLELHGARKASWTLLARTLNSSGLPFGSYTFEKDFSRGLNVRVIDQDTAKILESERFDTHEYRNESRRLQEFLRFQDPGRIVAIAVGDSAAKSLLQGTIQMIQERLGSELIQGLGYRQAWALVGVIDGGSTSCNESVRNYENHSSGGKALAQREFYTVDGQKFSVTAYSEWIEGVSLSGFRVEVVDGVKLNLLDDVSSWKPGDQIVVASTDYSMYQAEEFTLLPCSECSHFQVKVKETPQFLHMGEIIDGVDMRAEVGILTRNIVIQGEVEDSCYAENQCQFFDYDTFGGHIMIMKNFTSVHLSYVELKHMGQQQMGRYPVHFHLCGDVDYKGGYRHATFVDGLSIHHSFSRCITVHGTNGLLIKDTIGFDTLGHCFFLEDGIEQRNTLFHNLGLLTKPGTLLPTDRNNSMCTTMRDKVFGNYIPVPATDCMAVSTFWIAHPNNNLINNAAAGSQDAGIWYLFHKEPTGESSGLQLLAKPELTPLGIFYNNRVHSNFKAGLFIDKGVKTTNSSAADPREYLCLDNSARFRPHQDANPEKPRVAALIDRLIAFKNNDNGAWVRGGDIIVQNSAFADNGIGLTFASDGSFPSDEGSSQEVSESLFVGESRNYGFQGGQNKYVGTGGIDQKPRTLPRNRTFPIRGFQIYDGPIHLTRSTFKKYVPTPDRYSSAIGFLMKNSWQITPRNNISLVKFGPHVSLNVFFGKPGPWFEDCEMDGDKNSIFHDIDGSVTGYKDAYVGRMDNYLIRHPSCVNVSKWNAVICSGTYAQVYVQTWSTQNLSMTITRDEYPSNPMVLRGINQKAAFPQYQPVVMLEKGYTIHWNGPAPRTTFLYLVNFNKNDWIRVGLCYPSNTSFQVTFGYLQRQNGSLSKIEEYEPVHSLEELQRKQSERKFYFDSSTGLLFLYLKAKSHRHGHSYCSSQGCERVKIQAATDSKDISNCMAKAYPQYYRKPSVVKRMPAMLTGLCQGCGTRQVVFTSDPHKSYLPVQFQSPDKAETQRGDPSVISVNGTDFTFRSAGVLLLVVDPCSVPFRLTEKTVFPLADVSRIEEYLKTGIPPRSIVLLSTRGEIKQLNISHLLVPLGLAKPAHLYDKGSTIFLGFSGNFKPSWTKLFTSPAGQGLGVLEQFIPLQLDEYGCPRATTVRRRDLELLKQASKAH
B1: the binding entry is given as “binds”.
